Reference: patent publication US20140000886A1, “PETROLEUM RECOVERY PROCESS AND SYSTEM” (Shell Oil Company, priority 2012, published 2014)
Where two headings read alike, the source gives them in different places.

Assays:
[1] = SARA analysis of bitumen samples extracted by each solvent
[2] = Oil recovery from formation core by brine displacement followed by DMS displacement; settings: after brine displacement
Procedure: Incremental recovery of oil from a formation core using an oil recovery formulation consisting of dimethyl sulfide following oil recovery from the core by water-flooding was measured to evaluate the effectiveness of DMS as a tertiary oil recovery agent.
Two 5.02 cm long Berea sandstone cores with a core diameter of 3.78 cm and a permeability between 925 and 1325 mD were saturated with a brine having a composition as set forth in Table 7.
After saturation of the cores with brine, the brine was displaced by a Middle Eastern Asphaltic crude oil having the characteristics as set forth above in Table 3 to saturate the cores with oil.
Oil was recovered from each oil saturated core by the addition of brine to the core under pressure and by subsequent addition of DMS to the core under pressure. Each core was treated as follows to determine the amount of oil recovered from the core by addition of brine followed by addition of DMS. Oil was initially displaced from the core by addition of brine to the core under pressure. A confining pressure of 1 MPa was applied to the core during addition of the brine, and the flow rate of brine to the core was set at 0.05 ml/min. The core was maintained at a temperature of 50° C. during displacement of oil from the core with brine. Oil was produced and collected from the core during the displacement of oil from the core with brine until no further oil production was observed (24 hours). After no further oil was displaced from the core by the brine, oil was displaced from the core by addition of DMS to the core under pressure. DMS was added to the core at a flow rate of 0.05 ml/min for a period of 32 hours for the first core and for a period of 15 hours for the second core. Oil displaced from the each core during the addition of DMS to the core was collected separately from the oil displaced by the addition of brine to the core.
The oil samples collected from each core by brine displacement and by DMS displacement were isolated from water by extraction with dichloromethane, and the separated organic layer was dried over sodium sulfate. After evaporation of volatiles from the separated, dried organic layer of each oil sample, the amount of oil displaced by brine addition to a core and the amount of oil displaced by DMS addition to the core were weighed. Volatiles were also evaporated from a sample of the Middle Eastern asphaltic oil to be able to correct for loss of light-end compounds during evaporation.

[3] = Core 1, 0.05 ml/min for 32 hours
[4] = Core 2, 0.05 ml/min for 15 hours

Row | Structure (SMILES) | Aromatics in extracted bitumen ([1]; bitumen extracted at 30° C.) [Normalized Weight Percent] | Asphaltenes in extracted bitumen ([1]; bitumen extracted at 30° C.) [Normalized Weight Percent] | Resins in extracted bitumen ([1]; bitumen extracted at 30° C.) [Normalized Weight Percent] | Saturates in extracted bitumen ([1]; bitumen extracted at 30° C.) [Normalized Weight Percent] | Aromatics in extracted bitumen [1] [Normalized Weight Percent] | Asphaltenes in extracted bitumen [1] [Normalized Weight Percent] | Resins in extracted bitumen [1] [Normalized Weight Percent] | Oil produced DMS displacement [2, 3] [mL] | Oil produced DMS displacement (of % oil initially in core) [2, 3] [%] | Oil produced DMS displacement [2, 4] [mL] | Oil produced DMS displacement (of % oil initially in core) [2, 4] [%] | Extraction of asphaltenes from oil sands / miscibility with asphaltenes ([1]; SARA analysis)
1 | S=C=S [Carbon Disulfide, carbon disulfide] | 41.89 | 13.85 | 25.49 | 18.77 | – | – | – | – | – | – | – | –
2 | ClC(Cl)Cl [Chloroform, chloroform] | – | – | – | 15.64 | 43.56 | 14.86 | 25.94 | – | – | – | – | –
3 | CSC [Dimethyl Sulfide, dimethyl sulfide] | 47.07 | 13.19 | 24.25 | 15.49 | – | – | – | 3.5 | 32 | 3.3 | 30 | excellent miscibility properties
4 | C1CCOC1 [Tetrahydrofuran, tetrahydrofuran] | 45.24 | 14.27 | 24.38 | 16.11 | – | – | – | – | – | – | – | –
5 | Cc1ccccc1C [o-Xylene, o-xylene] | 46.39 | 13.96 | 22.28 | 17.37 | – | – | – | – | – | – | – | –
